Measurements as given in patent US20070098718A1 (Novartis, published 2007).
No constants are given. Whether binding was seen depends on the method and setting. Binding seen in cells or lysates may run through a third protein. Some binding calls cover weakened binding; strength is not graded here.

By UniProt entry, the sequences of proteins in these tests, tags left out. Where a name states a change or a piece, a line headed by the entry shows the natural chain unless it says otherwise.
UniProt P25942: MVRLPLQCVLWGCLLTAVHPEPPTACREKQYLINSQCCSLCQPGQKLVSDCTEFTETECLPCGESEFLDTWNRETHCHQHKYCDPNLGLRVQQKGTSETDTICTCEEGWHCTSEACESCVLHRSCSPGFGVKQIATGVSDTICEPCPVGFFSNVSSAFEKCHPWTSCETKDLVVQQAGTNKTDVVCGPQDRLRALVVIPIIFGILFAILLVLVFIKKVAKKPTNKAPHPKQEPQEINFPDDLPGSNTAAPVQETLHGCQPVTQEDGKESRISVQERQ

Target: human CD40 (cell-surface CD40) (human) (UniProt P25942)
Experiment: co-immunoprecipitation with polyclonal anti-CD40 from normal human B cells, Western blot

binding: binds
B1: TRAF2 (protein, human, UniProt Q12933 2-501, looked up)
chain: AAASVTPPGSLELLQPGFSKTLLGTKLEAKYLCSACRNVLRRPFQAQCGHRYCSFCLASILSSGPQNCAACVHEGIYEEGISILESSSAFPDNAARREVESLPAVCPSDGCTWKGTLKEYESCHEGRCPLMLTECPACKGLVRLGEKERHLEHECPERSLSCRHCRAPCCGADVKAHHEVCPKFPLTCDGCGKKKIPREKFQDHVKTCGKCRVPCRFHAIGCLETVEGEKQQEHEVQWLREHLAMLLSSVLEAKPLLGDQSHAGSELLQRCESLEKKTATFENIVCVLNREVERVAMTAEACSRQHRLDQDKIEALSSKVQQLERSIGLKDLAMADLEQKVLEMEASTYDGVFIWKISDFARKRQEAVAGRIPAIFSPAFYTSRYGYKMCLRIYLNGDGTGRGTHLSLFFVVMKGPNDALLRWPFNQKVTLMLLDQNNREHVIDAFRPDVTSSSFQRPVNDMNIASGCPLFCPVSKMEAKNSYVRDDAIFIKAIVDLTGL
